# Results: the supplement of paper PMC8728848
# The list shows a part of the results.
# Legend:
# Test in all cases: glycan array binding signal (z-score within array); higher = stronger binding
# Settings in all cases: glycan notation: IUPAC condensed, linker removed
# [1] = molecular target: Fuc(a1-2)Gal
# Method in brief: (§1)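 Glycan array data came from 3228 arrays in the Consortium for Functional Glycomics database, and only arrays with an available protein sequence were kept. Glycan names were put into IUPAC-condensed notation, and columns mapping to the same glycan were averaged. The binding signal is a within-array Z-score, averaged across arrays of one protein sequence run at different concentrations or buffers and across linkers. A negative Z-score can be read as non-binding.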
# [2] = molecular target: Fuc(a1-2)Gal(b1-3)GalNAc
# Method in brief: as §1
# [3] = molecular target: Fuc(a1-2)Gal(b1-3)GalNAc(a1-3)[Fuc(a1-2)]Gal(b1-4)Glc
# Method in brief: as §1
# [4] = molecular target: Fuc(a1-2)Gal(b1-3)GalNAc(a1-3)[Fuc(a1-2)]Gal(b1-4)GlcNAc
# Method in brief: as §1
# [5] = molecular target: Fuc(a1-2)Gal(b1-3)GalNAc(b1-3)Gal
# Method in brief: as §1
# [6] = molecular target: Fuc(a1-2)Gal(b1-3)GalNAc(b1-3)Gal(a1-4)Gal(b1-4)Glc
# Method in brief: as §1
# [7] = molecular target: Fuc(a1-2)Gal(b1-3)GalNAc(b1-4)[Neu5Ac(a2-3)]Gal(b1-4)Glc
# Method in brief: as §1
# [8] = molecular target: Fuc(a1-2)Gal(b1-3)GlcNAc
# Method in brief: as §1
# [9] = molecular target: Fuc(a1-2)Gal(b1-3)GlcNAc(b1-2)Man(a1-3)[Fuc(a1-2)Gal(b1-3)GlcNAc(b1-2)Man(a1-6)]Man(b1-4)GlcNAc(b1-4)GlcNAc
# Method in brief: as §1
# [10] = molecular target: Fuc(a1-2)Gal(b1-3)GlcNAc(b1-2)Man(a1-3)[Fuc(a1-2)Gal(b1-3)GlcNAc(b1-2)Man(a1-6)]Man(b1-4)GlcNAc(b1-4)[Fuc(a1-6)]GlcNAc
# Method in brief: as §1
# [11] = molecular target: Fuc(a1-2)Gal(b1-3)GlcNAc(b1-3)Gal(b1-4)Glc
# Method in brief: as §1
# [12] = molecular target: Fuc(a1-2)Gal(b1-3)GlcNAc(b1-3)GalNAc
# Method in brief: as §1
# [13] = molecular target: Fuc(a1-2)Gal(b1-3)GlcNAc(b1-3)[Fuc(a1-2)Gal(b1-3)GlcNAc(b1-6)]GalNAc
# Method in brief: as §1
# [14] = molecular target: Fuc(a1-2)Gal(b1-3)GlcNAc(b1-3)[Gal(b1-4)GlcNAc(b1-6)]Gal(b1-4)Glc
# Method in brief: as §1
# [15] = molecular target: Fuc(a1-2)Gal(b1-3)GlcNAc(b1-3)[Neu5Ac(a2-6)Gal(b1-4)GlcNAc(b1-6)]Gal(b1-4)Glc
# Method in brief: as §1
# [16] = molecular target: Fuc(a1-2)Gal(b1-3)GlcNAc6S
# Method in brief: as §1
# [17] = molecular target: Fuc(a1-2)Gal(b1-3)[Fuc(a1-4)]GlcNAc
# Method in brief: as §1
# [18] = molecular target: Fuc(a1-2)Gal(b1-3)[Fuc(a1-4)]GlcNAc(b1-2)Man(a1-3)[Fuc(a1-2)Gal(b1-3)[Fuc(a1-4)]GlcNAc(b1-2)Man(a1-3)]Man(b1-4)GlcNAc(b1-4)GlcNAc
# Method in brief: as §1
# [19] = molecular target: Fuc(a1-2)Gal(b1-3)[Fuc(a1-4)]GlcNAc(b1-2)Man(a1-3)[Fuc(a1-2)Gal(b1-3)[Fuc(a1-4)]GlcNAc(b1-2)Man(a1-6)]Man(b1-4)GlcNAc(b1-4)[Fuc(a1-6)]GlcNAc(b1-4)[Fuc(a1-6)]GlcNAc
# Method in brief: as §1
# [20] = molecular target: Fuc(a1-2)Gal(b1-3)[Fuc(a1-4)]GlcNAc(b1-3)[Fuc(a1-3)[Gal(b1-4)]GlcNAc(b1-6)]Gal(b1-4)Glc
# Method in brief: as §1
# [21] = molecular target: Fuc(a1-2)Gal(b1-3)[Fuc(a1-4)]GlcNAc(b1-3)[Gal(b1-4)GlcNAc(b1-6)]Gal(b1-4)Glc
# Method in brief: as §1
# [22] = molecular target: Fuc(a1-2)Gal(b1-4)Glc
# Method in brief: as §1
# [23] = molecular target: Fuc(a1-2)Gal(b1-4)Glc6S
# Method in brief: as §1
# [24] = molecular target: Fuc(a1-2)Gal(b1-4)GlcNAc
# Method in brief: as §1
# [25] = molecular target: Fuc(a1-2)Gal(b1-4)GlcNAc(b1-2)Man
# Method in brief: as §1
# [26] = molecular target: Fuc(a1-2)Gal(b1-4)GlcNAc(b1-2)Man(a1-3)[Fuc(a1-2)Gal(b1-4)GlcNAc(b1-2)Man(a1-6)]Man(b1-4)GlcNAc(b1-4)GlcNAc
# Method in brief: as §1
# [27] = molecular target: Fuc(a1-2)Gal(b1-4)GlcNAc(b1-2)Man(a1-3)[Fuc(a1-2)Gal(b1-4)GlcNAc(b1-2)Man(a1-6)]Man(b1-4)GlcNAc(b1-4)[Fuc(a1-6)]GlcNAc
# Method in brief: as §1
# [28] = molecular target: Fuc(a1-2)Gal(b1-4)GlcNAc(b1-2)[Fuc(a1-2)Gal(b1-4)GlcNAc(b1-4)]Man(a1-3)[Fuc(a1-2)Gal(b1-4)GlcNAc(b1-2)Man(a1-6)]Man(b1-4)GlcNAc(b1-4)GlcNAc
# Method in brief: as §1
# [29] = molecular target: Fuc(a1-2)Gal(b1-4)GlcNAc(b1-3)Gal(b1-4)GlcNAc
# Method in brief: as §1
# [30] = molecular target: Fuc(a1-2)Gal(b1-4)GlcNAc(b1-3)Gal(b1-4)GlcNAc(b1-2)Man(a1-3)[Fuc(a1-2)Gal(b1-4)GlcNAc(b1-3)Gal(b1-4)GlcNAc(b1-2)Man(a1-6)]Man(b1-4)GlcNAc(b1-4)GlcNAc
# Method in brief: as §1
binder,measurement,setting,value
Mermaid2 (Stilbonema majum) (protein) MGSSHHHHHHSSGLVPRGSHMAASGWLRSPQGTVVKLYRRSLSWSKADEFCKDVDGRLVVDRTADMHLFLIKNVLKEKKSRVWVGLRRTAPHSRTWIWSDGTRQNEDDLNTNLWLRDEPNDAAGEEECALFMYSPWEKAWGLNDYLCRGGCRSYQFICEKGIR,glycan array binding signal (z-score),[1],2.43
same,glycan array binding signal (z-score),[2],-0.4
same,glycan array binding signal (z-score),[3],-0.659
same,glycan array binding signal (z-score),[4],-0.899
same,glycan array binding signal (z-score),[5],-0.276
same,glycan array binding signal (z-score),[6],-0.142
same,glycan array binding signal (z-score),[7],-0.772
same,glycan array binding signal (z-score),[8],-0.762
same,glycan array binding signal (z-score),[9],1.62
same,glycan array binding signal (z-score),[10],-0.612
same,glycan array binding signal (z-score),[11],-0.74
same,glycan array binding signal (z-score),[12],-0.392
same,glycan array binding signal (z-score),[13],0.539
same,glycan array binding signal (z-score),[14],-0.927
same,glycan array binding signal (z-score),[15],0.333
same,glycan array binding signal (z-score),[16],-0.05
same,glycan array binding signal (z-score),[17],-0.743
same,glycan array binding signal (z-score),[18],-0.446
same,glycan array binding signal (z-score),[19],-0.681
same,glycan array binding signal (z-score),[20],-0.697
same,glycan array binding signal (z-score),[21],-0.432
same,glycan array binding signal (z-score),[22],-0.355
same,glycan array binding signal (z-score),[23],-0.331
same,glycan array binding signal (z-score),[24],-0.425
same,glycan array binding signal (z-score),[25],1.76
same,glycan array binding signal (z-score),[26],-0.02
same,glycan array binding signal (z-score),[27],1.08
same,glycan array binding signal (z-score),[28],-0.379
same,glycan array binding signal (z-score),[29],-0.575
same,glycan array binding signal (z-score),[30],1.13

# Pulled one by one from the entries so far:
binder,measurement,setting,value
Mermaid2 (Stilbonema majum) (protein) MGSSHHHHHHSSGLVPRGSHMAASGWLRSPQGTVVKLYRRSLSWSKADEFCKDVDGRLVVDRTADMHLFLIKNVLKEKKSRVWVGLRRTAPHSRTWIWSDGTRQNEDDLNTNLWLRDEPNDAAGEEECALFMYSPWEKAWGLNDYLCRGGCRSYQFICEKGIR,glycan array binding signal (z-score),[9],1.62
same,glycan array binding signal (z-score),[15],0.333
